Results taken from paper PMC11270970.

Chains of the proteins cited; added tags and fusions are not shown. A line that says so, or that is headed by a name, gives the form on record, which may keep a tag or linker.
nucleolin (NuP), recombinant human (Homo sapiens), one chain, as listed by the source: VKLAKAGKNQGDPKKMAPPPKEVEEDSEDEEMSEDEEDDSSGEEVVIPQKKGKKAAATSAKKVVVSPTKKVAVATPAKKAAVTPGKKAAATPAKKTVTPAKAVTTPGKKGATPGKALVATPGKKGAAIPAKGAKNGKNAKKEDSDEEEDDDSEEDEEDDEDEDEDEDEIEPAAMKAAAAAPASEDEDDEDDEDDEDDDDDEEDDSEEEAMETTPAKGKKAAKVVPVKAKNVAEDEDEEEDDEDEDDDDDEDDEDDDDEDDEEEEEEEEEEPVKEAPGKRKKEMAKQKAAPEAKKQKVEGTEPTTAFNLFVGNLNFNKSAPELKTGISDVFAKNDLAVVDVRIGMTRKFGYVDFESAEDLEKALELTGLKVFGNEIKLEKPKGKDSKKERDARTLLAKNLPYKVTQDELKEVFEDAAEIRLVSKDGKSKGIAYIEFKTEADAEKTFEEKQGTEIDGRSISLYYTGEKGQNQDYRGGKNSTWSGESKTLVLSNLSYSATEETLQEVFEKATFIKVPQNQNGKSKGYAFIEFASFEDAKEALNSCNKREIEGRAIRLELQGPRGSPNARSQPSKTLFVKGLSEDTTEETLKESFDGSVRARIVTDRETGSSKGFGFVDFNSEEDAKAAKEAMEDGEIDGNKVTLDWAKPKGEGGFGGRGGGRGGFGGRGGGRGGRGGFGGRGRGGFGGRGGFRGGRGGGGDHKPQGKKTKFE

Test system: nucleolin (NuP), recombinant human (Homo sapiens)
Assay: SPR
Settings: minimal association; 5' triptolide via acetal ester linker - amino-CH2CH2-(OCH2CH2)3-O-; SPR with recombinant human nucleolin; recombinant protein; single-stranded DNA

CCTCCTCCTCCTTCTCCTCCTCC [CO-TP (TP-amino-CRO, 6b)]
binding result: binds more weakly

For at least one entry, the source does not settle the construct or the ends of the probe. The comparison behind a weaker result is the experiment's own reference, which may not be listed here.
